The campaign covered roughly 1,400 compounds. About 45 (3%) were called active.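 Rule for the calls: active = half-maximal dose of signal decrease from fit no higher than ten times the top valid tested dose; inconclusive = fit invalid, or curve flat with 30 to 70% inhibition; inactive = the rest.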 The list shows a part of the results. Entries with a potency or affinity are not part of this list.
Target: Lysine-specific demethylase 4A (Homo sapiens) (UniProt O75164)
Test: JMJD2A histone demethylase inhibitors, dose response, selectivity assay for GASC-1 inhibitor project, biochemical, DELFIA europium, cherry-picked samples (AID 488840);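 note: europium signal reports the dimethyl H3K9 product detected by antibody so inhibitors lower it; 0% = median of neutral control wells and -100% = median of positive control wells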
Conditions: GST-JMJD2A(1-420) H3K9me3 demethylation; at 6 µM (top of the series) unless noted

Amino acid sequences for entries named in this document (tags omitted). A change or cut given only in a name is not applied to a line headed by its entry.
UniProt O75164: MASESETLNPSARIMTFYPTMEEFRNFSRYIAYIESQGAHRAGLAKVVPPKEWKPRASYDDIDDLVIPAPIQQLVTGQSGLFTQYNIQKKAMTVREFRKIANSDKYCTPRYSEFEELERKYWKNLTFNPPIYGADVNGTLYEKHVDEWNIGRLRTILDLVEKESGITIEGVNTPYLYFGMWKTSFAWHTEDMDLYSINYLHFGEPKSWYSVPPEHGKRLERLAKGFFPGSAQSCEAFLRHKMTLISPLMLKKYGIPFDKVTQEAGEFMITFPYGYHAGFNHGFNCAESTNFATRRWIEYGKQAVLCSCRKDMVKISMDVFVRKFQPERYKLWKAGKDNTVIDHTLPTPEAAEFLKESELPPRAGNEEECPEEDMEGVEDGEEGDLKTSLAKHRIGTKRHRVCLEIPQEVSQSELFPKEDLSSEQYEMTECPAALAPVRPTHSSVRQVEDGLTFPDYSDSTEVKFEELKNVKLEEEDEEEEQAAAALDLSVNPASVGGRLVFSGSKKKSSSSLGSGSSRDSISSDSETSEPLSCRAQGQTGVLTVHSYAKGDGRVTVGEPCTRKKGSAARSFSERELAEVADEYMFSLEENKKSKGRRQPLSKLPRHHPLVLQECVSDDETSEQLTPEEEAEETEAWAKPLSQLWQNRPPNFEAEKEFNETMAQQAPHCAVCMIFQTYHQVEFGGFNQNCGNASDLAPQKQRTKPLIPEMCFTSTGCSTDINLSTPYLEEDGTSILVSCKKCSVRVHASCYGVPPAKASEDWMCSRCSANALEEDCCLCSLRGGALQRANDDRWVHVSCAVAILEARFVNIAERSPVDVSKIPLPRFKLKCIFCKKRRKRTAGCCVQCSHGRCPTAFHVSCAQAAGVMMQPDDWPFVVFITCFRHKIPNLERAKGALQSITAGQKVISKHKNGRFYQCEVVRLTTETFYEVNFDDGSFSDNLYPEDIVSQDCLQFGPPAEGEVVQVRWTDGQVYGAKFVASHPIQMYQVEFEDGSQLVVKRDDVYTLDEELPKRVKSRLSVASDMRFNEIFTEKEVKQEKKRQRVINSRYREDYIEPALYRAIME

Activity change, negative = inhibition, inactive:
CS(=O)(=O)N(CC(=O)NCc1ccco1)c1ccccc1Cl 0.814%
Cc1c(C(=O)NCc2cccs2)oc2ccccc12 2.19%
CCn1c(=O)c(-c2nc3ccccc3[nH]2)c(O)c2ccccc21 -3.34%
N#CCN1CCC(c2cc(-c3ccco3)n[nH]2)CC1 -2.49%
COc1cc(/C=N/Nc2ccccc2)ccc1OC(=O)c1cccs1 -6.09%
Cc1nnc(N/N=C\c2ccc(-c3ccccc3[N+](=O)[O-])o2)n1N -12.8%
Cc1ccc(C)c(N(C(=O)c2csnn2)C(C(=O)NC2CCCC2)c2cccnc2)c1 (stereo not given) -2.27%
O=C(NCc1cccc(Cl)c1)c1cnn2c1NC(c1ccco1)CC2C(F)(F)F (stereo not given) -2.33%
COc1cccc(OC)c1C(=O)NC(=S)N1CCOCC1 1.69%
N#Cc1ccc(N=c2ssnc2Cl)cc1 6.6%
C[C@@H]1CN([C@@H](C)CO)C(=O)c2cc(NC(=O)CCN3CCOCC3)ccc2O[C@@H]1CN(C)C(=O)Nc1ccccc1 -0.696%
COc1ccccc1-c1nc(C#N)c(NCc2ccc(F)cc2)o1 5.13%
COc1cc2c(cc1CNC[C@H]1O[C@@H](n3cnc4c(N)ncnc43)[C@H](O)[C@@H]1O)OCO2 5.09%
O=C1c2ccc([N+](=O)[O-])cc2C(=O)N1Cc1cccnc1 7.62%
O=C(/C=C/c1ccc2c(c1)OCO2)NCCS(=O)(=O)N1CCN(c2ccc(F)cc2)CC1 1.96%
CCOC(=O)C1(C)NC(c2cccs2)C2C(=O)N(c3ccc(OC)cc3)C(=O)C21 (stereo not given) 2.68%
S=C(NCc1ccco1)Nc1cccc(Cl)c1 1.64%
N#Cc1nc(COc2ccccc2F)oc1NCCCn1ccnc1 -0.21%
O=C(NC1CCN(S(=O)(=O)c2ccc(F)cc2)CC1)c1ccc(F)cc1 -4.19%
CSC1=N/C(=C\C=C\c2cccs2)C(=O)S1 0.0904%
O=C(CC(=O)N/N=C/c1c(F)cccc1Cl)NCc1ccccc1 -4.77%
Cc1ccc(C(=O)CN2C(=O)C(=O)N(Cc3ccccc3)C2=O)cc1 2.2%
CC(=O)Nc1ccc(NC(=O)Cn2cnc3c(cnn3C(C)(C)C)c2=O)cc1 -13.6%
Cc1ccc(CONC(=O)c2cccc([N+](=O)[O-])c2)cc1 -0.947%
CC/C(=C/c1sc2ccc(C)cc2[n+]1CCCS(=O)(=O)[O-])SC 0.561%

In the list so far, 3 have two or more sulfur atoms.
Activity change, negative = inhibition, inactive:
N#Cc1ccc(N=c2ssnc2Cl)cc1 6.6%
CSC1=N/C(=C\C=C\c2cccs2)C(=O)S1 0.0904%
CC/C(=C/c1sc2ccc(C)cc2[n+]1CCCS(=O)(=O)[O-])SC 0.561%

Reference: PubChem BioAssay AID488840 (Broad Institute, 2010)
